Experimental findings from patent US20060275316A1 are described below.

These are yes or no findings as the source states them, for the method shown. Some results given as binding are weak or reduced against the parent protein; the word gives no strength.

The target of test [1] is T1, CXCR4 on CEM X4/R5 cells (a human T cell line expressing CXCR4 and CCR5) (human), P61073.
T1 chain: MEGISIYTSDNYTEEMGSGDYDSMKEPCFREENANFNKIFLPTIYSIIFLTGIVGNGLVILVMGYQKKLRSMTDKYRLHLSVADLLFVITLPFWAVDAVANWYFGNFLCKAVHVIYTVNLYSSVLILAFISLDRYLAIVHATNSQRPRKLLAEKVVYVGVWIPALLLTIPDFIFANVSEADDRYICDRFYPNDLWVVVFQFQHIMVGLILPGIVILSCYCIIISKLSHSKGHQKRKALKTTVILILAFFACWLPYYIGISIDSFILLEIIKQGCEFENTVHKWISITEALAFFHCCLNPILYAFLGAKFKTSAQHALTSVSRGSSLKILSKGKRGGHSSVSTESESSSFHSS
The test is described as follows: competition with 125I-SDF-1 on CEM X4/R5 cells, gamma counting (figure legend). To be noted: remark: other sources report otherwise.

Test [2] addresses T1, CXCR4 on CEM X4/R5 cells (a human T …). The test is described as follows: competition with 125I-SDF-1 on CEM X4/R5 cells at 37 C and 4 C, gamma counting. The note with it: remark: other sources report otherwise.

As to GIINTLQKYYCRVRGGRCAVLSCLPKEEQIGKCSTRGRKCCRRKK (peptide, UniProt P81534 23-67, looked up) [recombinant human beta defensin-3 (rhBD-3), P81534 23-67], the binding result in test [1] and in test [2] was “binds” in each case.
